{"sequences": {"note": "Amino acid sequences for entries named in this document (tags omitted).", "UniProt P22317": "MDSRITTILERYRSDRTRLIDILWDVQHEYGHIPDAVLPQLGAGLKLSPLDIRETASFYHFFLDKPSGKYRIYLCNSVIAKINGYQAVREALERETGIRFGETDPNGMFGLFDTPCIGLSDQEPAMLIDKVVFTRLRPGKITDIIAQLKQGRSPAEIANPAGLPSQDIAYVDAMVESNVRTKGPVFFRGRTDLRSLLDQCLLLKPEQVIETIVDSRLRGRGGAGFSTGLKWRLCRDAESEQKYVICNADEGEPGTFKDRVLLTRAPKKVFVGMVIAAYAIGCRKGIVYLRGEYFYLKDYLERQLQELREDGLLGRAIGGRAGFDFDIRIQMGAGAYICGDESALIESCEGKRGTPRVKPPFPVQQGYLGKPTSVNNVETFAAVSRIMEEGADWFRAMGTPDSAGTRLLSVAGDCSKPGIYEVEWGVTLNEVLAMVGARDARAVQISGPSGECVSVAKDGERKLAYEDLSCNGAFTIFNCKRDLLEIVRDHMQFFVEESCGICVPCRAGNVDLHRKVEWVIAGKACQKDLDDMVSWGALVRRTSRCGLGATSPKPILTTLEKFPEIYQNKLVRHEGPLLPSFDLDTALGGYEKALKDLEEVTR", "UniProt P22318": "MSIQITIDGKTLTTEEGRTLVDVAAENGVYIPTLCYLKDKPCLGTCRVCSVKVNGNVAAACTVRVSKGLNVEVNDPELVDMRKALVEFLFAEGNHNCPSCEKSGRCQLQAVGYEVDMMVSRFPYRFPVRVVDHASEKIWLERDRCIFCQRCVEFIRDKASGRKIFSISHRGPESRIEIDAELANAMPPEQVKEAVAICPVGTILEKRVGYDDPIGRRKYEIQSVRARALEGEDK", "UniProt P22319": "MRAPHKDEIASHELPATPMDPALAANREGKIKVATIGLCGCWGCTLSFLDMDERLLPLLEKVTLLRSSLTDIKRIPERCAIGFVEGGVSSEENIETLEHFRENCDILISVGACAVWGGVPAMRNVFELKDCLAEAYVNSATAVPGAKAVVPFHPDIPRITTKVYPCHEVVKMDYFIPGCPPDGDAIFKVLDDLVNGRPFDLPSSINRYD", "UniProt P22320": "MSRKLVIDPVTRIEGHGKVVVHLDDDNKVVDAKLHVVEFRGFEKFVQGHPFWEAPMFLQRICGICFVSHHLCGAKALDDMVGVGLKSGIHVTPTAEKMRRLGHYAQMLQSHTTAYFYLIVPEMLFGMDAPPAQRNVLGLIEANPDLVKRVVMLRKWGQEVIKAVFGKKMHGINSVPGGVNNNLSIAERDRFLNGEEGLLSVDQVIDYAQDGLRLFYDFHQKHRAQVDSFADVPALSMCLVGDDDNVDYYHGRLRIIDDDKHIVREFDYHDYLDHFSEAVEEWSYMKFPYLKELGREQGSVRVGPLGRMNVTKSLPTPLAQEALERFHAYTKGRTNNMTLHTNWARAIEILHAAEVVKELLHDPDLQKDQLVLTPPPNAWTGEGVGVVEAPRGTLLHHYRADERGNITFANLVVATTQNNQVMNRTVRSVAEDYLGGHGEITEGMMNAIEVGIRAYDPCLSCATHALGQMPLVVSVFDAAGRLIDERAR"}, "source": "paper PMC4816682", "note": "These are yes or no findings as the source states them, for the method shown. Some entries that bind do so weakly or less than the wild type."}
{"molecular_target": "HoxF NAD-reducing hydrogenase diaphorase moiety large subunit [R. eutropha H16] (R. eutropha H16) (UniProt P22317)", "assay": "SEC; endogenous soluble hydrogenase followed by its activity through ammonium sulphate fractionation, Q Sepharose FF, RESOURCE Q and Superdex 200 10/300 GL (50 mM KPi with 150 mM NaCl, 4 °C, aerobic); the five bands of the SH fraction on SDS-PAGE identified by mass spectrometry; no bait"}
{"substance": "HoxU NAD-reducing hydrogenase diaphorase moiety small subunit [R. eutropha H16] (from UniProt P22318 1-234)", "binding": "binds"}
{"substance": "HoxY NAD-reducing hydrogenase moiety small subunit [R. eutropha H16] (from UniProt P22319 1-209)", "binding": "binds"}
{"substance": "HoxH NAD-reducing hydrogenase moiety large subunit [R. eutropha H16] (from UniProt P22320 1-488)", "binding": "binds"}
